These are yes or no findings as the source states them, for the method shown. In cells and extracts the contact can be indirect. These calls come from enrichment with a bait or labelling near it, and not all partners need be listed.

Sequences of proteins named here, by UniProt entry; tags and fusion partners are left off.
UniProt Q9CWH6: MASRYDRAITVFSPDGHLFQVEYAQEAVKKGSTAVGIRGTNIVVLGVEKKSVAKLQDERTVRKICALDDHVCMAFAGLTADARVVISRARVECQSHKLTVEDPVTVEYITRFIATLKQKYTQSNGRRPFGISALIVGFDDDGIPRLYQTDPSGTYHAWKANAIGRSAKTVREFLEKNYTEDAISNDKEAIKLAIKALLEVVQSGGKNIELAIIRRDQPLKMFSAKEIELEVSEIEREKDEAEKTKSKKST

The target of this assay is PSMA8 (testis-specific α4s subunit of the spermatoproteasome) (mouse (endogenous in testis)) (UniProt Q9CWH6). Description: affinity purification with mass spectrometry.

B1: TDRD1 (protein, UniProt Q99MV1 1-1172)
chain: MMPRNNLEASTCKMAEPFNFEKKESKPPPQDPLRSPVAQHNHPTFRLKSPENGNTKNNFLLCEQNKQYLASQEDSSVVSSNPAVVNGEVGGSKGDRKPPPTGNPVSPLSLGNSSPPNQVKTKPSSNVTPEKSKKSHKLFENALSVNNPALFNSLGPPLRSTTCHRCGLFGSLRCSQCKQTYYCSTACQRRDWSSHSTICRPVQQSLNKLEDNKSPFETKAIEVKSEVDCPPGVTKEITAGAERVMFSDLRSLQLKKTMEIKGTVTEFKHPSNFYIQLYSSEVLENMNQLSTSLKETYANVVPEDGYLPVKGEVCVAKYTVDQTWNRAIVQAVDVLQRKAHVLYIDYGNEEMIPIDSVHPLSRGLDLFPPSAIKCCVSGVIPTAGEWSEGCVAAVKALLFEQFCSVKVMDILEEEVLTCAVDLVLQSSGKQLDHVLVEMGYGVKPGEQSSTEQSVDHSALEDVGRVTVESKIVTDRNALIPKVLTLNVGDEFCGVVAHIQTPEDFFCQQLQSGHKLAELQESLSEYCGHVIPRSDFYPTIGDVCCAQFSEDDQWYRASVLAYASEESVLVGYVDYGNFEILSLKRLCPIIPKLLDLPMQALNCVLAGVKPSLGIWTPEAVCVMKEMVQNRMVTVRVVGMLGTRALVELIDKSVAPHVSASKALIDSGFAIKEKDVADKGSSMHTASVPLAIEGPAEALEWTWVEFTVDETVDVVVCMMYSPGEFYCHFLKDDALEKLDDLNQSLADYCAQKPPNGFKAEIGRPCCAFFSGDGNWYRALVKEILPSGNVKVHFVDYGNVEEVTTDQLQAILPQFLLLPFQGMQCWLVDIQPPNKHWTKEATARFQACVVGLKLQARVVEITANGVGVELTDLSTPYPKIISDVLIREQLVLRCGSPQDSLMSRPANQHKQIDSHRVQASPSAEQWKTMELPVNKTIAANVLEIISPALFYAIPSEMSENQEKLCVLAAELLEHCNAQKGQPAYRPRTGDACCAKYTNDDFWYRAIVLETSESDVKVLYADYGNIETLPLSRVQPIPASHLELPFQIIRCSLEGPMELNGSCSQLVMELLRNAMLNQSVVLSVKAISKNVHAVSVEKCSENGMINIAENLVMCGLAENLTSKRKSASTKEIPHSRDCCCTELQKQIEKHEQILLFLLNNPTNQSKFTEMKKLLRS
In the case of B1, the binding result is given as “binds”.

B2: SPATA20 (Spermatogenesis-associated protein 20) (protein, UniProt Q80YT5 1-790)
chain: MSHHSSPPPKHKGEHKGHGLPRGSERGSSSRDKDRSATTVSSSAPMPAGGKSSRTNCPPPAPPKTVNRLINEKSPYLLQHAYNPVDWYPWGQEAFDKAKKENKPIFLSVGYSTCHWCHMMEEESFQNEEIGRLLNENFICVMVDREERPDVDKVYMTFVQATSSGGGWPMNVWLTPGLQPFVGGTYFPPEDGLTRVGFRTVLMRICDQWKLNKNTLLENSQRVTTALLARSEISVGDRQIPASAATMNSRCFQQLDEGYDEEYGGFAEAPKFPTPVILNFLFSYWLSHRLTQDGSRAQQMALHTLKMMANGGIQDHVGQGFHRYSTDRQWHIPHFEKMLYDQAQLSVVYTQAFQISGDEFYADVAKGILQYVTRTLSHRSGGFYSAEDADSPPERGMKPQEGAYYVWTVKEVQQLLPEPVVGASEPLTSGQLLMKHYGLSEVGNINSSQDPNGELHGQNVLMVRYSLELTAARYGLEVEAVRALLNTGLEKLFQARKHRPKAHLDNKMLAAWNGLMVSGFAVTGAALGMEKLVAQATSGAKFLKRHMFDVSSGRLKRTCYAGTGGTVEQSNPPCWGFLEDYAFVVRGLLDLYEASQESSWLEWALRLQDTQDKLFWDPRGGGYFCSEAELGADLPLRLKDDQDGAEPSANSVSAHNLLRLHSFTGHKDWMDKCVCLLTAFSERMRRVPVALPEMVRTLSAQQQTLKQIVICGDPQAKDTKALLQCVHSIYVPNKVLILADGDPSSFLSRQLPFLSSLRRVEDRATVYIFENQACSMPITDPCELRKLLHQ
Take B2: the binding result is “binds”.

B3: TDRD9 (protein, UniProt Q14BI7 1-1383)
chain: MLRKLTVDQINDWFTIGKTVTNVELLGLPPAFPAEAPREEVQRSEEVPNEDPTAQAQVPVKATAPARPASTSGRSLSQRSSEMEYINKYRQLEEQELDIYGQDQPPSGPGLRSPLAKLSNVACIPETTYKYPDLPINRCKEEVISLIESNSVVIIHGATGSGKSTQLPQYVLDHYTQRSAFCNIVVTQPRKIGASSIARWISKERSWTLGGLVGYQVGLEKIATEDTRLIYMTTGVLLQKIVSAKSLMEFTHIFIDEVHERTEEMDFLLLVVRKLLRTNSRFVKVVLMSATINCKQFADYFAVPVQNKMNPAYVFEVEGKPHAIEEYYLNDLGHIYHSGLPYRLEEPVITKDVYEVAVSLIQMFDDLDMKESGNKTWSGAQFVSERSSVLVFLPGLGEINYMHELLTNMIHKRLQVYPLHSSVTLEEQNNVFLSPVPGYRKIILSTNIAESSVTVPDVKYVIDFCLTRTLVCDEDTNYQSLRLSWASKTSCDQRKGRAGRVSKGYCYRLIPRDFWDSAIPDHVVPEMLRCPLGSTILKVKLLDMGEPRALLATALSPPSLSDIERTILLLKEVGALAVSGQREDENPHDGELTFLGRVLAQLPVSQQLGKLVVLGHVFGCLDECLIIAAALSLKNFFTMPFRQHLDGYRNKVHFSGSSRSDCLALVEAFRAWQACRQRGELRRPKDELDWGRLNYIQIKRIREVAELYEELKNRISQFNMFVGPHHPVLDQEYPYKQRFILQVVLAGAFYPNYFTFGQPDEEMAVRELAGKDPKTTVVLKHIPPYGFLYYKQLQSLFRQCGQVKSIVFDGAKAFVEFSRNPTERFKTLPAVNLAVKMSQLKVSLELSVHAAEEIEGKVQGGSVSKLRNTRVNVDFQKQTVDPMQVSFNTLDRPRTVADLLLTIDVTEVVEVGHFWGYRIDERNAELLKQLTAEINRLELVPLPIHPHPDLVCLAPFTDYNKESYFRAQILYVSGNSAEVFFVDYGNRSHVDLDLLREIPCQFLELPFQALEFKICKMRPSAKSLICGEHWSGGAHGRFAALVGGCPLLVKVFSIVHSVLHVDVYRYSGAQDAVNVRDVLIREGYAELAEESYESKQSYEVLKGFFAKSVDTMPDGSVSSPLKDDEKHLLRILLESFASNRLGAPNCKAVLHGPFNPYELKCHSLTRISKFRCVWIEKESINSVVISDSPADLHQRMLVAASLSVNETGSTMLLRETSLMPHIPGLPALLSMLFAPVMELRVDREGKCYTGVLCGLGWNSATEAPILPEHDIELAFDVRLNVEDIVEINILRAAINKLVCDGPNGSKYLGPERIAQLQENARQKLLGLFCRLKPREKITPQWHEKPYEWNQVDPRLIMEQAEPEGSPGKSTSLYQLHTPVVLSP
Consider B3, for which the binding entry is “binds”.

B4: DAZL (deleted in azoospermia) (protein, UniProt Q64368 1-298)
chain: MSATTSEAPNSAVSREASTQSSSATTSQGYVLPEGKIMPNTVFVGGIDVRMDETEIRSFFARYGSVKEVKIITDRTGVSKGYGFVSFYNDVDVQKIVESQINFHGKKLKLGPAIRKQNLCTYHVQPRPLIFNPPPPPQFQSVWSSPNAETYMQPPTMMNPITQYVQAYPPYPSSPVQVITGYQLPVYNYQMPPQWPAGEQRSYVIPPAYTTVNYHCSEVDPGADILPNECSVHDAAPASGNGPQKKSVDRSIQTVVSCLFNPENRLRNSLVTQDDYFKDKRVHHFRRSRAVLKSDHLC
Turning to B4, the binding entry was “binds”.

B5: MAEL (protein, UniProt Q8BVN9 1-434)
chain: MPNRRASRNAYYFFVQEKIPELRRRGLPVARVADAIPYCSADWALLREDEKEKYSEMAREWRAAQGKDSGPSEKQKLVSTPLRRPGMLVPKPSISPPDMSNLSIKSDQALLGGIFYFLNIFSHGELPPHCEQRFLPCEIGCVKYSLQEGIMADFHSFIHPGEIPRGFRFHCQAASDSSHKIPISNFEFGHDQATVLQNLYKFIHPNPGNWPPIYCKSDDRARVNWCLKRMERASEIRQDLELLTVEDLVVGIYQQKFLKEPSKTWVRSLLDVAMWDYSSNTRCKWHEENDILFCALAVCKKIAYCISNSLATLFGIQLTGAHVPLQDYEASNSVTPKMVVLDAGRYQKLRVESPGFCHFNSYNQEQRSNTSTGYYPSGVKISGPHSSVRGRGITRLLESISNSSNNIHRFSSCETSLSPYTPQKDGYKPFSSFS
As for B5, the binding result was “binds”.

B6: SPAG1 (Sperm-associated antigen 1) (protein, UniProt Q80ZX8 1-901)
chain: MTAKAKDCPSLWGFGTTKTFKIPIEHLDFKYIENCSDVKHLEKILYVLRSGEEGYYPELTEFCEKCLTNLAPKSRALRKDKPAETASSFSAEEWEKIDSDLKSWVSEIKREENTCHFHDPENHPGVEDPLPPVRGSTCCPHSGKETYSKSKTAKKRIPRDYAEWDKFDVEKECSKIDEDYKEKTVINNKAHLSKIETKIETAGLTEKEKSFLANREKGKGNEAFYSGDYEEAVMYYTRSLSALPTAIAYNNRAQAEIKLQRWSSALEDCEKALELDPGNVKALLRRATTYKHQNKLQEAVDDLRKVLQVEPDNDLAKKTLSEVERDLKNSEPVSELQTKGKRMVIEEVENSGDEGGKGSADEREDGGSDEAAMGNIQKKLMVRRSEGGRRSRRGRTPGPRAEQQGGLRETATASTGDSHYPEEPRAADNPSGLKRRGNELFRGGQFAEAAAQYSVAIAQLEPTGSANADELSILYSNRAACYLKEGNCRDCIQDCNRALELHPFSVKPLLRRAMAYETLEQYRNAYVDYKTVLQIDCGIQLASDSANRIARILTELDGSKWRERLPPIPAVPTSEPLRVWLPAAETPDQDPCPNNCMPSITDEKMFQALKEEGNQLVKDKNYKDAISKYNECLKINSKACAIYTNRALCYLKLGQFEEAKLDCEQALQIDGENVKASHRLALAQKGLENCRESGVDPSQVLLSPDSSEAARHLDTKNDTAPPSKGRERRRIQVQEVDGSSDEEPERPAEASATSAPARDGVEDGGSAEPAEKLDVSKPTNAYEFGQVLSTISARKDEEACAHLLAITAPKDLPLLLSNKLEGDTFLLLIQSLKSHLVAKDPSLVYEHLLYLSKAERFKTMLTLINKGQKEQMAQLFDGLSDTQSDGLTAEDVQALRRQYEL
For B6, the binding entry is “binds”.

B7: SPATA5 (Spermatogenesis-associated protein 5) (protein, UniProt Q3UMC0 1-893)
chain: MSSKKNRKRQKEGAEGASPSLSAAPSRSGTSTPFAQPSPAAPGMLVVTNFLEKVDGKVPKTFQNSLVHLGLNTMKSANICIGRPVLLTSLDGKQEVYTAWPVAGFPGGKVGLSEMAQKNVGVRAGETIQVQPLLGAVLQAQEMDLALSDKDKEINEEELTGCILRKLDGKIVLPGNFLYCTFYGRLCKLQVLQVKGTDGTTLGKLQSASGTDAQGMASEHSSMESSDVDLSFQLSQLDLKEPQSPSSQSTPCKPTNDRTVNKAGEVLLDVTQSPRDGSGLGLEESTGLKCSFDSSKEGNTQPVSEEKLLKPASAGTKSNTDTFYFISSTTRINLRKICTNSKEQDSQFKVTYDMIGGLNSQLKAIREIIELPLKQPELFKSYGIPAPRGLLLYGPPGTGKTMIARAVANEVGAYVSVINGPEIISKFYGETEARLRQIFAEATLRHPSIIFIDELDALCPKREGAQSEVEKRVVASLLTLMDGIGSEGSEGRVLVLGATNRPQALDAALRRPGRFDKEIEIGIPNAQDRLDILQKLLRRVPHLLTKAELLRLANNAHGYVGADLKALCNEAGLHALRRVLRKQPNLPDSKVAGMVKITLNDFLQGMNDIRPSAMREVAIDVPNVSWSDIGGLENIKLKLKQAVEWPLKHPKSFNRMGIQPPKGVLLYGPPGCSKTMIAKALANESGLNFLAIKGPELMNKYVGESERAVREIFRKARAVAPSIIFFDELDALAVERGSSSGAGNVADRVLAQLLTEMDGIEQLKNVTVLAATNRPDRIDKALMRPGRIDRIIYVPLPDAATRREILNLQFHSMPISNEVDLDELVLQTDTYSGAEIIAVCKEAALLALEENIKADCIMKRHFTQALSIVTPRIPESLRRFYEDYQEKSGLHTV
Consider B7, for which the binding result was “binds”.

The record behind these values is article doi:10.1101/384354.
